Measured values from PubChem BioAssay AID328 (DTP/NCI, 2004).
The list shows only some results of the screen, not a fair sample: it is rich in T/C values a quarter to a half above the control, in often repeated tests (any T/C) and in doses without a T/C. Further doses and runs are listed elsewhere. T/C: endpoint of the treated group in % of that of the vehicle group. Some doses have a count of surviving animals in place of a T/C: the source files T/C as zero there, which appears to mark a toxic dose or a test without result, not a measured value. Some doses without a T/C left all or most animals alive at the check, yet need not have been tolerated: survival well below the control is almost never listed, so the zero probably covers shortened survival too. Counts of survivors are from the toxicity check (mostly the fifth day) where no day follows; animals may have died later. Schedules are NCI's codes, read here as Q, the interval in days (D) or hours (H), X, the number of doses. Some doses were run more than once; the values are given in rising order. For survival time, this PubChem deposit counts one and a half times the control or more as active, and values a quarter to a half above the control carry no call in these data; other NCI protocols may use other cut-offs.

Tested on: BDF1 mice, P388 leukemia ip, median survival T/C
Assay: NCI In Vivo Anticancer Drug Screen. Data for tumor model P388 Leukemia (intraperitoneal) in B6D2F1 (BDF1) mice
Settings: T/C endpoint: median survival time, higher T/C = longer survival
Method in brief: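 T/C = treated-group survival ÷ vehicle-control survival; tumour transplanted into mice before dosing.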

[1] = dose: 400.0 mg/kg/injection, schedule: Q01DX009 (ip), vehicle: Klucel (hydroxypropylcellulose) (HPC)
[2] = dose: 200.0 mg/kg/injection, schedule: Q01DX009 (ip), vehicle: Klucel (hydroxypropylcellulose) (HPC)
[3] = dose: 400.0 mg/kg/injection, schedule: Q04DX003 (ip), vehicle: Klucel (hydroxypropylcellulose) (HPC)

Q: `CC(=O)Nc1cc(F)c([N+](=O)[O-])cc1[N+](=O)[O-]` was tested. Which T/C (dose: 1.25 mg/kg/injection, schedule: Q01DX009 (ip), vehicle: saline) did it give?
A: 135 % of control

Q: What about the survivor count (dose: 40.0 mg/kg/injection, schedule: Q01DX009 (ip), vehicle: Klucel (hydroxypropylcellulose) (HPC)) of the same compound?
A: 3 of 6

Q: Which results are given for `CN1CC(C(=O)N2CCCCC2)C=C2c3cccc4[nH]cc(c34)CC21` (centres undefined)?
A: survivor count (dose: 25.0 mg/kg/injection, schedule: Q01DX009 (ip), vehicle: saline): 5 of 6; survivor count (dose: 50.0 mg/kg/injection, schedule: Q01DX009 (ip), vehicle: saline): 5 of 6; survivor count (dose: 100.0 mg/kg/injection, schedule: Q01DX009 (ip), vehicle: saline): 3 of 6; survivor count (dose: 100.0 mg/kg/injection, schedule: Q04DX003 (ip), vehicle: saline): 5 of 6; survivor count (dose: 200.0 mg/kg/injection, schedule: Q04DX003 (ip), vehicle: saline): 1 of 6

Q: How did the survivor count (dose: 50.0 mg/kg/injection, schedule: Q01DX009 (ip), vehicle: saline with Tween-80) turn out when `COCCn1c2nc(=O)n(-c3ccccc3)c(=O)c-2nc2ccccc21` was run?
A: 5 of 6

Q: What about the survivor count (dose: 100.0 mg/kg/injection, schedule: Q01DX009 (ip), vehicle: saline with Tween-80) of the same compound?
A: 0 of 6

Q: What about the survivor count (dose: 200.0 mg/kg/injection, schedule: Q01DX009 (ip), vehicle: saline with Tween-80) of the same compound?
A: 0 of 6

Q: `CCN/C(C)=C\C(=O)OCC` was tested. Which T/C (dose: 178.0 mg/kg/injection, schedule: Q01DX009 (ip), vehicle: Klucel (hydroxypropylcellulose) (HPC)) did it give?
A: 148 % of control

Q: What about the T/C [1] of the same compound?
A: 133 % of control

Q: For `O=C(CCCN1CCC(C(=O)c2ccc(Cl)cc2)CC1)c1ccc(F)cc1`, which survivor count (dose: 25.0 mg/kg/injection, schedule: Q01DX009 (ip), vehicle: Klucel (hydroxypropylcellulose) (HPC)) is on record?
A: 6 of 6

Q: What about the survivor count (dose: 50.0 mg/kg/injection, schedule: Q01DX009 (ip), vehicle: Klucel (hydroxypropylcellulose) (HPC)) of the same compound?
A: 2 of 6 and 3 of 6

Q: What about the survivor count (dose: 100.0 mg/kg/injection, schedule: Q01DX009 (ip), vehicle: Klucel (hydroxypropylcellulose) (HPC)) of the same compound?
A: 0 of 6

Q: What about the survivor count [2] of the same compound?
A: 0 of 6

Q: For `CC1CCCC[N-]1.CC1CCCC[N-]1.[Cl][Pt+2][Cl]` (centres undefined), which survivor count [2] is on record?
A: 6 of 6

Q: `CCCCOc1ccc(OCCCCCCCCCC[N+](C)(C)C)cc1` was tested. Which survivor count (dose: 1.56 mg/kg/injection, schedule: Q01DX009 (ip), vehicle: Klucel (hydroxypropylcellulose) (HPC)) did it give?
A: 6 of 6

Q: With `Nc1ccc2c(c1)OCO2` as the compound, how does the survivor count (dose: 200.0 mg/kg/injection, schedule: Q01DX009 (sc), vehicle: olive oil, sesame oil, peanut oil) read?
A: 0 of 6

Q: What about the survivor count (dose: 400.0 mg/kg/injection, schedule: Q01DX009 (sc), vehicle: olive oil, sesame oil, peanut oil) of the same compound?
A: 0 of 6

Q: For `COC(=O)C1=C(C)NC(=O)NC1c1ccc(N(CCCl)CCCl)c(OC)c1` (centres undefined), which T/C (dose: 0.9 mg/kg/injection, schedule: Q01DX009 (ip), vehicle: saline with Tween-80) is on record?
A: 146 % of control

Q: `C=CCCCCCCCCCCCCCCCC` (tested in a mixture with another compound) was tested. Which T/C (dose: 100.0 mg/kg/injection, schedule: Q01DX009 (ip), vehicle: other) did it give?
A: 128 % of control

Q: What about the T/C (dose: 200.0 mg/kg/injection, schedule: Q01DX009 (ip), vehicle: other) of the same compound?
A: 136 % of control

Q: `Cc1cc(N(CCCl)CCCl)ccc1C=NC1CCCC1` was tested. Which T/C (dose: 88.0 mg/kg/injection, schedule: Q01DX009 (ip), vehicle: Klucel (hydroxypropylcellulose) (HPC)) did it give?
A: 130 % of control

Q: What about the survivor count (dose: 300.0 mg/kg/injection, schedule: Q01DX009 (ip), vehicle: Klucel (hydroxypropylcellulose) (HPC)) of the same compound?
A: 6 of 6

Q: And the survivor count [1]?
A: 1 of 6

Q: And the T/C [3]?
A: 145 % of control

Q: How did the survivor count (dose: 100.0 mg/kg/injection, schedule: Q01DX010 (ip), vehicle: carboxymethylcellulose (CMC)) turn out when `Oc1ccc(F)c2cccnc12` was run?
A: 1 of 6

Q: How did the survivor count (dose: 50.0 mg/kg/injection, schedule: Q04DX003 (ip), vehicle: Klucel (hydroxypropylcellulose) (HPC)) turn out when `O=C(NCCCCN1CC1)C(=O)NCCCCN1CC1` was run?
A: 4 of 6

Q: With `CN(C)c1ccc2c(c1)Cc1cc(N=C3C=CC(=O)O3)ccc1-2` as the compound, how does the survivor count (dose: 1.56 mg/kg/injection, schedule: Q01DX009 (ip), vehicle: alcohol) read?
A: 6 of 6

Q: And the survivor count (dose: 3.12 mg/kg/injection, schedule: Q01DX009 (ip), vehicle: alcohol)?
A: 6 of 6

Q: And the survivor count (dose: 6.25 mg/kg/injection, schedule: Q01DX009 (ip), vehicle: alcohol)?
A: 6 of 6

Q: And the survivor count (dose: 12.5 mg/kg/injection, schedule: Q01DX009 (ip), vehicle: saline)?
A: 6 of 6

Q: How did the survivor count [3] turn out when `CCOC(=O)C(=Cc1ccc(C=C(C(=O)OCC)C(=O)OCC)cc1)C(=O)OCC` was run?
A: 5 of 6
